Experimental findings from PMC9724427 are described below.

Chains of the proteins cited; added tags and fusions are not shown.
UniProt P35222: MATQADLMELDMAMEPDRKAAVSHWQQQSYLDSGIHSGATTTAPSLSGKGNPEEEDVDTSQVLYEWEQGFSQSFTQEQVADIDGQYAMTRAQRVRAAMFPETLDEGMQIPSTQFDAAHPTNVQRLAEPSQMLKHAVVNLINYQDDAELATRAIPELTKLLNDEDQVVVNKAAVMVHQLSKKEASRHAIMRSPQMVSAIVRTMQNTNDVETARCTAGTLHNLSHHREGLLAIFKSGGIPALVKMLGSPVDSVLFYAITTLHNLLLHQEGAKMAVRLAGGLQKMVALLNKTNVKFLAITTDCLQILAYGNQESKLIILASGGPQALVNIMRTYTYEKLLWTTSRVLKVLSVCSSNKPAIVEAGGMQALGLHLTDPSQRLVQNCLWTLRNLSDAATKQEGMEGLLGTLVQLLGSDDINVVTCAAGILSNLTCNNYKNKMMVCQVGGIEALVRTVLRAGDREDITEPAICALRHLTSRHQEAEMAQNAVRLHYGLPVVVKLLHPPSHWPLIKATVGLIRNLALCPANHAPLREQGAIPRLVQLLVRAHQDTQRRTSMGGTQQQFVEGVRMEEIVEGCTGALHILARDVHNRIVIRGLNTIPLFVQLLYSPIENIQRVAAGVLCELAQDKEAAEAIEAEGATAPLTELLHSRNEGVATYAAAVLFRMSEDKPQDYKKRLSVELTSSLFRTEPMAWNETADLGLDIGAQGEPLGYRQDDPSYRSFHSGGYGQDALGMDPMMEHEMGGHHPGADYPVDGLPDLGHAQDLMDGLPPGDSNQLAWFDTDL

This assay has as its target T1, Discoidin domain-containing receptor 2 (human (endogenous in hepatoma cells)) (UniProt Q16832).
T1 sequence: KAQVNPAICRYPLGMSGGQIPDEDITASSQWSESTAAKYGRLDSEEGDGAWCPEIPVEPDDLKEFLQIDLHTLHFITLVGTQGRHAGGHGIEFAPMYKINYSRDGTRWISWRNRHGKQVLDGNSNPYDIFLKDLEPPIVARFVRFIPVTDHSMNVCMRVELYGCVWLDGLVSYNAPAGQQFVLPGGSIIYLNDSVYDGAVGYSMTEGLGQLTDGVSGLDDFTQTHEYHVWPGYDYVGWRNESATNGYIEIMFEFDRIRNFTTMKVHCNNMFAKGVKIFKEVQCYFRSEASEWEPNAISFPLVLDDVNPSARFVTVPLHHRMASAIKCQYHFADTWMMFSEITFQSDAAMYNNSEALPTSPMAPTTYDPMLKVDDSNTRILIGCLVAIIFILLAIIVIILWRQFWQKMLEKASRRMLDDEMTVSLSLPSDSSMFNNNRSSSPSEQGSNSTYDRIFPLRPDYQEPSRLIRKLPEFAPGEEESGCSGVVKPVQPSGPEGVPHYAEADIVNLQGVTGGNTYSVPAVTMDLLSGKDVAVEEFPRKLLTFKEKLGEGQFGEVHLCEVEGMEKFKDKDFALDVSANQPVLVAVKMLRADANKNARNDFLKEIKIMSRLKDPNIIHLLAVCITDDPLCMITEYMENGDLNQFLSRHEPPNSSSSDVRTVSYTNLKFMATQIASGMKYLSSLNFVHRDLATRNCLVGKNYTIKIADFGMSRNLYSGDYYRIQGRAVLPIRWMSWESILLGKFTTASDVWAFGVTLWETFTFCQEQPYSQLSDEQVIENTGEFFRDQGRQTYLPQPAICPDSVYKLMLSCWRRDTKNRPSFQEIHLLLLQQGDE
Nature of the assay: co-IP; Pierce Crosslink Magnetic IP/Co-IP Kit; protein A/G magnetic beads pre-bound to an antibody against DDR2, incubated with cell lysates at 4 °C overnight, low-pH elution, western blot; cells with CEBPA-DT silencing or overexpression.

Results are given in words; binding and its absence hold for the method and conditions named. Binding seen in cells or lysates may run through a third protein. Some results given as binding are weak or reduced against the parent protein; the word gives no strength.

In the case of β-catenin (from UniProt P35222 1-781), the binding result is on record as “binds”.
